Laboratory results taken from article PMC6925144, “A prospective compound screening contest identified broader inhibitors for Sirtuin 1” (Scientific Reports, 2019).
In all, about 3,200 compounds were measured (“TSA(with NAD+) / Primary screening (TSA) / delta Tm (K)”: median about -0.04, highest 2% from about 0.37 on). The list shows a part of the results.

Chains of the proteins cited; added tags and fusions are not shown. Residues count along the entry.
UniProt Q96EB6, 2-747 limits assumed: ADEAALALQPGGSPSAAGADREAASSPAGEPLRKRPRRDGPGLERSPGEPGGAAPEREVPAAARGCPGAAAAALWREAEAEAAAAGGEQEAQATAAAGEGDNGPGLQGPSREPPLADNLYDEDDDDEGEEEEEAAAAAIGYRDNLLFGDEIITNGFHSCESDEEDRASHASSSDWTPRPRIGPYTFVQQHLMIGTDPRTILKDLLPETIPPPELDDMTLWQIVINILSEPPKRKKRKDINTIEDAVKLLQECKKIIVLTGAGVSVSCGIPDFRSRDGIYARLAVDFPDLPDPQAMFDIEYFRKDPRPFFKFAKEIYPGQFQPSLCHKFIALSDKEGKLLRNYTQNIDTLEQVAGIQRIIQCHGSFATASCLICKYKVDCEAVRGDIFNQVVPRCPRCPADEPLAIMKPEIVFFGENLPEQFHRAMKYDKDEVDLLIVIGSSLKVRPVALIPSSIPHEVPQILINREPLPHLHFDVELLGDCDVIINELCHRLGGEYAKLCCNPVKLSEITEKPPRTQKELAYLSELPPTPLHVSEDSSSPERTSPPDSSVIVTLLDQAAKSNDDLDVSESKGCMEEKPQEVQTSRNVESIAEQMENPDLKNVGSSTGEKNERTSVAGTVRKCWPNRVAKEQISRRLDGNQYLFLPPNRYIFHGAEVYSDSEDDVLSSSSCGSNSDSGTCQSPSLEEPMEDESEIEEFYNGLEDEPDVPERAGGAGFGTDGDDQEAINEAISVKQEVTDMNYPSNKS

What follows are molecules tested against NAD-dependent deacetylase Sirtuin 1 (human, UniProt Q96EB6) (assay: primary screen, delta tm). Details: 10 µM.
Set-up: single well (n = 1, as 'the same TSA')

| Compound | TSA(with NAD+) / Primary screening (TSA) / delta Tm (K) |
| --- | --- |
| NC(=O)c1ccc(NC(=O)CNc2cc(Cl)ccc2N2CCOCC2)cc1 | 0.03 |
| O=c1oc2ccc3ccccc3c2cc1-c1csc(-c2nc(-c3ccc(Br)cc3)cs2)n1 | -0.18 |
| CCOC(CNS(=O)(=O)c1ccc(C(N)=O)cc1)(OCC)c1ccccn1 | -0.01 |
| O=C(Cc1ccc(OCc2cccc3cccnc23)cc1)NCCO | -0.11 |
| Cc1nn(CC(=O)N2CCC(N3CCCC3C(N)=O)CC2)cc1-c1ccccc1 (centres unmarked) | -0.06 |
| C=C(Br)CN | 0.06 |
| O=C(Nc1ccc2c3c(cccc13)CC2)c1cnc2sccn2c1=O | 0.28 |
| C=CC(C)N (centres unmarked) | -0.01 |
| Cn1ccc(NC(=O)C(Cc2c[nH]c3ccccc23)NC(=O)c2cccs2)n1 (centres unmarked) | -0.23 |
| CC(C)(C)c1noc(CCCC(=O)Nc2cc(C(N)=O)ccc2N2CCCC2)n1 | -0.21 |
| O=c1[nH]c2ccccc2cc1CSc1nccn1Cc1ccccn1 | -0.02 |
| CC(C)c1ccc(/C=C2/CS(=O)(=O)c3ccccc3C2=O)cc1[N+](=O)[O-] | -0.61 |
| CCN(C(=O)c1cc(C)cc(Br)c1)c1ccncc1 | -0.23 |
| O=C(Nc1ccc2nc(N3CCOCC3)sc2c1)C1=COCCO1 | -0.01 |
| CNC(=O)c1ccc(Cl)cc1NC(=O)C1CC(=O)N(c2ccc3c(c2)OCO3)C1 (centres unmarked) | -0.04 |
| O=C(CCc1ccc(Cl)cc1)N1CCN(c2ccnc3cc(Cl)ccc23)CC1 | 0.02 |
| Cn1cc(CSc2cccc(F)c2)cn1 | -0.23 |
| Cc1cccc2c(=O)n(CC(=O)N(C)c3ccc4ccccc4c3)cnc12 | 0.06 |
| Cc1cc(C(=O)Nc2cc(C(N)=O)ccc2N2CCCCC2)c2ccccc2n1 | -0.16 |
| Cc1nn(-c2ccccc2)c(Cl)c1CN1CCN(c2ncnc3c2cnn3C)CC1 | -0.18 |
| Fc1cc(CSc2nnc(NCC3CCCO3)s2)c2ncccc2c1 (centres unmarked) | -0.04 |
| CC1CCCN(CCN2CCN(c3ccc(F)cc3)CC2)C1 (centres unmarked) | -0.28 |
| Cc1ccc(C(=O)NCC(=O)OC(C)C(=O)Nc2ccc(C(N)=O)cc2)cc1 (centres unmarked) | -0.12 |

Taken from the listing, 6 compounds:

| Compound | TSA(with NAD+) / Primary screening (TSA) / delta Tm (K) |
| --- | --- |
| Cc1nn(CC(=O)N2CCC(N3CCCC3C(N)=O)CC2)cc1-c1ccccc1 (centres unmarked) | -0.06 |
| C=C(Br)CN | 0.06 |
| O=C(Nc1ccc2c3c(cccc13)CC2)c1cnc2sccn2c1=O | 0.28 |
| C=CC(C)N (centres unmarked) | -0.01 |
| Cn1ccc(NC(=O)C(Cc2c[nH]c3ccccc23)NC(=O)c2cccs2)n1 (centres unmarked) | -0.23 |
| CC(C)(C)c1noc(CCCC(=O)Nc2cc(C(N)=O)ccc2N2CCCC2)n1 | -0.21 |

The results go on:

| Compound | TSA(with NAD+) / Primary screening (TSA) / delta Tm (K) |
| --- | --- |
| Cc1ccc(N(C)S(=O)(=O)c2cccc(C(=O)NNC(=O)C(C)Oc3ccc(C#N)cc3)c2)cc1 (centres unmarked) | 0.09 |
| CCN(Cc1ccco1)C(=O)Cc1sc(S)nc1C | -0.05 |
| O=C(O)c1cncnc1/C=C/c1ccc2ccccc2c1 | -0.18 |
| CCCCCCCCNC(=O)/C(C#N)=C/c1c[nH]c2ccccc12 | 0.43 |
| Cc1nn(C)c(C)c1Nc1ncnc2ccsc12 | -0.24 |
| CC(CCc1ccc(O)cc1)NC(=O)C(C)SCc1nc2scc(-c3ccccc3)c2c(=O)[nH]1 (centres unmarked) | 0.03 |
| Cc1sc2nc(CSc3ccccc3)nc(N3CCCC(C(N)=O)C3)c2c1C (centres unmarked) | -0.18 |
| O=c1oc2ccc3ccccc3c2cc1-c1nc(-c2ccc(Br)cc2)cs1 | -0.11 |
| Cc1ccc(C(C)(C)C)cc1S(=O)(=O)Nc1cccc(C(=O)NNC(=O)c2cccc(S(=O)(=O)Nc3cccc(C(F)(F)F)c3)c2)c1 | 0.65 |
| Cc1cnc(C(=O)NC(Cc2ccccc2)C(=O)N2CCCC2)cn1 (centres unmarked) | -0.11 |
| O=C(Nc1cccc(-c2nc(C3CC3)no2)c1)c1cccc(NC(=O)C2CCCCC2)c1 | 0.19 |
| NC(=O)C1CCN(C(=O)NCc2ccccc2CN2CCOCC2)C1 (centres unmarked) | -0.08 |
| O=C(COC(=O)C12CC3CC(C1)CC(c1ccccc1)(C3)C2)N1CCc2ccccc21 | -0.18 |
| Cc1ccc(NC(=O)CN2CCN(C(=O)c3ccc(-c4ccc(Cl)cc4)o3)CC2)cc1 | 0.02 |
| CC(NCc1cccc2c1OCO2)c1ccc2c(c1)NC(=O)CO2 (centres unmarked) | -0.08 |
| CCC(O)CCN (centres unmarked) | -0.28 |
| O=C(CN1CCN(Cc2cscn2)CC1)NC(c1ccccc1)C1CC1 (centres unmarked) | 0.03 |
| C=CCOc1cccc(/C=C2\Oc3cc(O)ccc3C2=O)c1 | -0.03 |
| Cc1nn(-c2ccccc2)c2sc(C(=O)NCc3cccc(NC(=O)C4CC4)c3)cc12 | 0.23 |
| Cc1[nH]c2ccc(Br)cc2c1CC(=O)N1CCC(C(N)=O)CC1 | -0.08 |
| NC(=O)C1Cc2ccccc2CN1C(=O)Cc1ccc2c(c1)CCCC2 (centres unmarked) | -0.13 |
| Cc1nc(N2CCC(C(N)=O)CC2)c2c(CC(C)C)csc2n1 | -0.02 |
| Cc1ccc(O)c(C(=O)NC2CCCNC2=O)c1 (centres unmarked) | -0.13 |

| Compound | TSA(with NAD+) / Primary screening (TSA) / delta Tm (K) |
| --- | --- |
| CCCCn1c(N)c(N(CC(C)C)C(=O)c2cccc(S(=O)(=O)N(C)c3ccccc3)c2)c(=O)[nH]c1=O | -0.05 |
| O=C(Nc1ccc2c(c1)C(=O)NC2=O)Nc1cnc[nH]1 | -0.02 |
| CC1(c2cccc(NC(=O)c3ccc4ccccc4n3)c2)NC(=O)NC1=O (centres unmarked) | -0.15 |
| CNC(=O)c1ccc(CSc2nccn2Cc2ccccn2)cc1 | 0.07 |
| CCn1c(SCc2cccc(F)c2)nc2ccsc2c1=O | -0.19 |
| Cc1cc(N2CCN(CC(=O)Nc3ccccc3C(N)=O)CC2)nc(C(C)C)n1 | 0.06 |
| O=C(C1=C(O)C(=O)N(CCCN2CCOCC2)C1c1ccco1)c1ccco1 (centres unmarked) | -0.06 |
| O=C1CN(c2ncnc3c2oc2ccccc23)CCN1 | -0.12 |
| CCOc1nc2cc(C(=O)OC(C)Cn3cccn3)ccc2[nH]1 (centres unmarked) | -0.11 |
| O=C(/C=C/c1cn(-c2ccccc2)nc1-c1cc2ccccc2o1)NCc1nnc2ccccn12 | -0.04 |
| CC(NC(=O)CN1C(=O)C2CC=CCC2C1=O)C12CC3CC(CC(C3)C1)C2 (centres unmarked) | -0.03 |
| CCC(C)(O)CN (centres unmarked) | -0.19 |
| NC(=O)C1COCCN1S(=O)(=O)c1c(Cl)nc2ccccn12 (centres unmarked) | -0.02 |
| Cc1ccc(C(=O)C2=C(O)C(=O)N(CCCN3CCOCC3)C2c2ccc(Cl)cc2)cc1 (centres unmarked) | 0.03 |
| NC(=O)CCn1cnc2sccc2c1=O | -0.03 |
| O=C(Nc1ccccc1Oc1ccccc1)c1cc(=O)c2ccccc2o1 | -0.09 |
| CN(CC(=O)NCc1ccco1)C(=O)c1ccc(-n2cccn2)cc1 | -0.11 |
| CN(c1ccccc1)S(=O)(=O)c1cccc(NC(=O)COC(=O)C23CC4CC(CC(C4)C2)C3)c1 | 0.13 |
| O=C(c1ccc2nnnn2c1)N(Cc1ccc(O)cc1)Cc1ccco1 | -0.11 |
| CN(c1ccccc1)S(=O)(=O)c1ccc(C(=O)NNC(=O)C23CC4CC(CC(C4)C2)C3)cc1 | 0.08 |
| NC(=O)c1ccc(NC(=O)COC(=O)c2cc3c(s2)CCCCC3)cc1 | -0.13 |
| O=C(Cn1[nH]c(=O)ccc1=O)OCc1ncc(-c2cccc(Cl)c2)o1 | 0.07 |
| Nc1ncnc2c1ncn2CC(=O)O | -0.11 |

| Compound | TSA(with NAD+) / Primary screening (TSA) / delta Tm (K) |
| --- | --- |
| CNC(=O)C(C)CN(C)c1ccc(Br)cc1C#N (centres unmarked) | -0.22 |
| CC(C)NC(=O)Cn1cc(C(=O)C2CCCCC2)c2ccccc21 | 0.01 |
| CONC(=O)c1ccc2[nH]c(C)c(C)c2c1 | -0.06 |
| COc1ccc(C2C(C(=O)c3cc4ccccc4o3)=C(O)C(=O)N2CCN2CCOCC2)cc1 (centres unmarked) | -0.01 |
| CCCN1CCN(CCCOc2ccccc2)CC1 | -0.12 |
| Cc1[nH]c2ccc(C(=O)N3CCCC(C(N)=O)C3)cc2c1C (centres unmarked) | -0.11 |
| NC(=O)COC(=O)C12CC3CC(C1)CC(c1ccccc1)(C3)C2 | -0.19 |
| O=C(Cn1c(C(F)(F)F)nc2ccccc21)N/N=C1/C(=O)N(Cc2ccc(Cl)cc2)c2ccccc21 | -0.01 |
| NC(=O)c1cccc(NC(=O)C2CCN(S(=O)(=O)c3cccs3)CC2)c1 | -0.11 |
| COc1cc(CNC(=O)NCCC2=CCCCC2)ccn1 | 0.09 |
| CC(c1ccc(S(N)(=O)=O)cc1)N(C)Cc1nc2ccccc2c(=O)[nH]1 (centres unmarked) | -0.21 |
| O=S(=O)(O)CC(O)CO (centres unmarked) | 0.05 |
| CC(=O)Cn1c(CN2CCC(C(N)=O)CC2)nc2c1c(=O)n(C)c(=O)n2C | 0.03 |
| O=C(CN1CCC(Cc2ccccc2)CC1)NCc1ccc(F)cc1 | -0.01 |
| CC(O)CCN (centres unmarked) | -0.09 |
| Cc1cc(N2CCN(Cc3nc4ccccc4s3)CC2)n2ncnc2n1 | -0.11 |
| COc1cc(/C=C/C(=O)Nc2ccc3c(c2)OCCO3)cc(OC)c1 | 0.15 |
| O=C(CC12CC3CC(CC(C3)C1)C2)NNC(=O)c1ccc(S(=O)(=O)N2CCc3ccccc3C2)cc1 | 0.26 |
| CN(Cc1cccc(F)c1)C(=O)c1cnc2ccccn2c1=O | -0.12 |
| Cc1noc(COC(=O)c2cc(-c3ccc(C)o3)nc3ccccc23)n1 | -0.04 |
| COc1ccc(-c2nn(-c3ccccc3)cc2CN(CCCCCCN(Cc2cn(-c3ccccc3)nc2-c2ccc(OC)cc2)C(=O)CCC(=O)O)C(=O)CCC(=O)O)cc1 | 0.21 |
| Cc1cc(NC(=O)N2Cc3cc4c(cc3C3(CCCC3)C2)OCCO4)no1 | -0.09 |
| Cc1cc(=O)[nH]c(-c2cccc(NC(=O)c3ccc4c(c3)CCC4)c2)n1 | -0.23 |
